Measured values: PubChem BioAssay (EPA / NIEHS)
The inconclusive results got no clear call from the source; some entries with a clear call stand among them for comparison. Potencies of inconclusive entries are doubtful fits and often do not repeat. The source made the active and inactive calls. Rule for the calls: active = hit-call score of the fitted dose curve at least 0.9, where 1 is the maximum; inconclusive = response in the unintended direction; inactive = score below 0.9.

By UniProt entry, the sequences of proteins in these tests, tags left out. Where a name states a change or a piece, a line headed by the entry shows the natural chain unless it says otherwise.
UniProt P21709: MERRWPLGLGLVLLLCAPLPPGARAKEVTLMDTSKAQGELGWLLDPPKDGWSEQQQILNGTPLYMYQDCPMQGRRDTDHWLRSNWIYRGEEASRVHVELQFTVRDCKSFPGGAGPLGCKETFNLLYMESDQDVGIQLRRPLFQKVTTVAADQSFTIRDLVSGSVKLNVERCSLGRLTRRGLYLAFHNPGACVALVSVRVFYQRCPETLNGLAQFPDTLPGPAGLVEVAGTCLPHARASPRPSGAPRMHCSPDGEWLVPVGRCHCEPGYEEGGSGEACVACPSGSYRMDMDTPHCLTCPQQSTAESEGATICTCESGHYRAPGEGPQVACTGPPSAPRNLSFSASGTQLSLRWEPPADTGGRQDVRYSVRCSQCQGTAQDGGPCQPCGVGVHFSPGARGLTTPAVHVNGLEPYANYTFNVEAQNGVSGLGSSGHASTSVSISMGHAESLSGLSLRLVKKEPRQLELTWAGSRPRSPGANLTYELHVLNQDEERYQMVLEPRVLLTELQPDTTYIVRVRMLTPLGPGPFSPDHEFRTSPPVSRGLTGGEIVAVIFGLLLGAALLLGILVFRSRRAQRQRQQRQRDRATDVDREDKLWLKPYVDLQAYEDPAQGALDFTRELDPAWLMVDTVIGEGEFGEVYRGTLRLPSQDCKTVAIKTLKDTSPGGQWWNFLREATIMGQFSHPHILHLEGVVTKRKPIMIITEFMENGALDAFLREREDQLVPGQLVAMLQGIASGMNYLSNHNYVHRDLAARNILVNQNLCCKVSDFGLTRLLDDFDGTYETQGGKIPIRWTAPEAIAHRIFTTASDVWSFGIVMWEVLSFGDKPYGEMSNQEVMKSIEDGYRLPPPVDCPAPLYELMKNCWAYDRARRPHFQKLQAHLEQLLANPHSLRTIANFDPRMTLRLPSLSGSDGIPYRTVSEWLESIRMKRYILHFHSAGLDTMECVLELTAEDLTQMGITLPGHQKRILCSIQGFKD

biological target: human Ephrin type-A Receptor 1 (EphA1), EPHA1 (gene 2041) (UniProt P21709); test: NVS_ENZ_hEphA1: NovaScreen (NVS) Enzymatic Assay for human Ephrin type-A Receptor 1 (EphA1) (AID 2283158);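 note: activity is signal loss versus DMSO meaning EphA1 kinase inhibition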
Method in brief: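 Cell-free kinase activity with recombinant protein, 1 hour after dosing; product separated by electrophoretic mobility shift, fluorescence read. Primary screen at 25 uM in duplicate; hits run as concentration-response up to 50 uM, relative to DMSO.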

SMILES	AC50	outcome
Oc1c(Cl)cc(Cl)c(Cl)c1Cl	inconclusive: 0.0821 µM	
O=C(c1ccc(O)cc1O)c1ccc(O)cc1O	active: 25 µM	
CC(C)(O)CCc1ccccc1	inconclusive: 25 µM	
CCC(C)C=O (stereo not drawn)	inconclusive: 0.146 µM	
O=[N+]([O-])c1cccc(Cl)c1	inconclusive: 25 µM	
CC(CO)(CO)[N+](=O)[O-]		inactive
CC1OC(=O)C(C)OC1=O (stereo not drawn)	inconclusive: 7.24 µM	
CCO[Si](CCC#N)(OCC)OCC	inconclusive: 0.457 µM	
Nc1ncnc2nc[nH]c12		inactive
O=C1c2c(O)ccc(Nc3ccc(CCO)cc3)c2C(=O)c2c([N+](=O)[O-])ccc(O)c21	inconclusive: 0.663 µM	
C=C(C)[C@H]1CC=C(C)CC1	inconclusive: 23.2 µM	
COc1ccc2sc(C(=O)Nc3nnn[nH]3)c(OC(C)C)c2c1		inactive
CC(C)CC(=O)O	inconclusive: 0.229 µM	
c1ccc2c(c1)ccc1ncccc12	inconclusive: 6.64 µM	
O=C1CCCC(=O)O1	inconclusive: 6.36 µM	
O=c1[nH]cnc2c1ncn2[C@H]1CC[C@@H](CO)O1		inactive
Cc1ccc(C(=O)c2ccccc2)cc1		inactive
Cc1cc(C)n(CO)n1	inconclusive: 41.9 µM	
COCCOCCOCCOCCOC		inactive
C=C(C)C(=O)OCC(C)C	inconclusive: 25 µM	
COc1ccccc1NC(=O)CC(C)=O	inconclusive: 5.97 µM	
N#CCCNCCC#N	active: 21.8 µM	
S=P(N1CC1)(N1CC1)N1CC1		inactive

Shown with bars between the fields: part of the list above
SMILES | AC50 | outcome
CCO[Si](CCC#N)(OCC)OCC | inconclusive: 0.457 µM | 
O=c1[nH]cnc2c1ncn2[C@H]1CC[C@@H](CO)O1 |  | inactive
